Experimental data taken from the supplement of paper PMC7666118.
Some of the results follow.

Amino acid sequences for entries named in this document (tags omitted). A change or cut given only in a name is not applied to a line headed by its entry.
UniProt Q15910, whole entry, looked up: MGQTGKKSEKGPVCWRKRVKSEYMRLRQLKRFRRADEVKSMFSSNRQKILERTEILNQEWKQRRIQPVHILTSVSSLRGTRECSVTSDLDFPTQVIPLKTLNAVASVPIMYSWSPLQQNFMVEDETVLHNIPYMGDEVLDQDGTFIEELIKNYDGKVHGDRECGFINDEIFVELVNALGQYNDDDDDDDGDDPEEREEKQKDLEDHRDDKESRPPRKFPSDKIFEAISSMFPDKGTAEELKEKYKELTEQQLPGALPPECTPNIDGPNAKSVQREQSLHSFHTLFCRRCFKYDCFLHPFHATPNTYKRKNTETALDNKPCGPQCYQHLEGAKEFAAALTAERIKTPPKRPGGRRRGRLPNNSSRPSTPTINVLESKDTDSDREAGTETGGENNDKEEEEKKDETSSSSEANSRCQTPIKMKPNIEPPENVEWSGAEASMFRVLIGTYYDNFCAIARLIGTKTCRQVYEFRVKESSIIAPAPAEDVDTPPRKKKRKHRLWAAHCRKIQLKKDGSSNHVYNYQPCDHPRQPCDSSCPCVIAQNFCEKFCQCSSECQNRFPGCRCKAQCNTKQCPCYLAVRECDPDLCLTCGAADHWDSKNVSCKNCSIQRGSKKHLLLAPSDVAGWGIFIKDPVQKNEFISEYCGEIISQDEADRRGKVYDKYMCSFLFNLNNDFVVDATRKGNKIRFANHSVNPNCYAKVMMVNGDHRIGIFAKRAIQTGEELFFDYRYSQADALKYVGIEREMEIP
UniProt Q8IWF6: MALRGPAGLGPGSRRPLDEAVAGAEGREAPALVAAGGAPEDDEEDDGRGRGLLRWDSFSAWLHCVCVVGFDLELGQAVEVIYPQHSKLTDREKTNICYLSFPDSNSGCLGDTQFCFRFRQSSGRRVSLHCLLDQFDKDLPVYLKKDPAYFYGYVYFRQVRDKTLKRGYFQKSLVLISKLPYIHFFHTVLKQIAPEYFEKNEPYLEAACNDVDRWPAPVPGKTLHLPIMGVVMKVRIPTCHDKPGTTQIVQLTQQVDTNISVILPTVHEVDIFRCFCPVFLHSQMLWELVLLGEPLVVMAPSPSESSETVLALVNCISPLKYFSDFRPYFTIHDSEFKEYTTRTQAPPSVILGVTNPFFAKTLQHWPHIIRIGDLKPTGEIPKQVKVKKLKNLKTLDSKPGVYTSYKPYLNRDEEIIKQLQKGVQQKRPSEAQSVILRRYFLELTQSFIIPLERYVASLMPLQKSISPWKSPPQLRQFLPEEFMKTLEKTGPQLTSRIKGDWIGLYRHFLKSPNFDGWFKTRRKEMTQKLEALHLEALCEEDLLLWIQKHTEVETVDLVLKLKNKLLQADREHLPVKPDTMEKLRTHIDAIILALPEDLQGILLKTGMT
UniProt Q7Z4H7: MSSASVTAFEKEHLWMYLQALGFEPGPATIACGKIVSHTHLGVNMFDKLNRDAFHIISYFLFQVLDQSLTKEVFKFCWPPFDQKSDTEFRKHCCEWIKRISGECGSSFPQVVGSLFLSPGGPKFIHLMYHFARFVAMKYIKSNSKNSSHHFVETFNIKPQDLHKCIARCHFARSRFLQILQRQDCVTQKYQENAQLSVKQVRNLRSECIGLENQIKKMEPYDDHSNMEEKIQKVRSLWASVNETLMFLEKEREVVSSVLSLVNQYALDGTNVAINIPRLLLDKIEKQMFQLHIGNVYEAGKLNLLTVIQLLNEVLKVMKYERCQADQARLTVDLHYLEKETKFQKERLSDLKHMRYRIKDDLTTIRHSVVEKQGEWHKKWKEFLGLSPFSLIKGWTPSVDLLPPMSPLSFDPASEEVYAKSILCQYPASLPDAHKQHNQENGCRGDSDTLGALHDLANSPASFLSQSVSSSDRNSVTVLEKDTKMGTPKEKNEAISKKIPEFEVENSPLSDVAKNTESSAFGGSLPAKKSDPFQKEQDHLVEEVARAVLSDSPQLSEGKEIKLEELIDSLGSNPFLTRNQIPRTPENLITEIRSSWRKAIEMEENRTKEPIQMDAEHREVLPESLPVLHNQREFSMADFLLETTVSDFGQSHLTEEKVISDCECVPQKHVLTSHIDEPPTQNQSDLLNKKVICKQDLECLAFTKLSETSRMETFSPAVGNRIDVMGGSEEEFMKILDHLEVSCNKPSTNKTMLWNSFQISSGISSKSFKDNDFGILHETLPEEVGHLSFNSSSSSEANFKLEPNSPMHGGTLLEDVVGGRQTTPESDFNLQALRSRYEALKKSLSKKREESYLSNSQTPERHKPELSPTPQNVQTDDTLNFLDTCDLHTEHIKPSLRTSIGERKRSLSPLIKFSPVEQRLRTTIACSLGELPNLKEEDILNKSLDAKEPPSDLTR
UniProt Q9NPA8: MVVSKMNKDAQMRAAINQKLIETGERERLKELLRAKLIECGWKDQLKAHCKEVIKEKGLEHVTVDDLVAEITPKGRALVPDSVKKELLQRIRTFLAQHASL
UniProt P07992: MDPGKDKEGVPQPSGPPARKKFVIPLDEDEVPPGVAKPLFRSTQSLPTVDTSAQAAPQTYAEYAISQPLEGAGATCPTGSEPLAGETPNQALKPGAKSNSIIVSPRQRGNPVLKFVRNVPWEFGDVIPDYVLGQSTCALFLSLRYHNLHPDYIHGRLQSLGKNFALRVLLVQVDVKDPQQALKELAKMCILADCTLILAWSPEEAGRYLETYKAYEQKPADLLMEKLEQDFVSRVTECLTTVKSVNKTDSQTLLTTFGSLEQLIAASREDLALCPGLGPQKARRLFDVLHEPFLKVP
UniProt O00716: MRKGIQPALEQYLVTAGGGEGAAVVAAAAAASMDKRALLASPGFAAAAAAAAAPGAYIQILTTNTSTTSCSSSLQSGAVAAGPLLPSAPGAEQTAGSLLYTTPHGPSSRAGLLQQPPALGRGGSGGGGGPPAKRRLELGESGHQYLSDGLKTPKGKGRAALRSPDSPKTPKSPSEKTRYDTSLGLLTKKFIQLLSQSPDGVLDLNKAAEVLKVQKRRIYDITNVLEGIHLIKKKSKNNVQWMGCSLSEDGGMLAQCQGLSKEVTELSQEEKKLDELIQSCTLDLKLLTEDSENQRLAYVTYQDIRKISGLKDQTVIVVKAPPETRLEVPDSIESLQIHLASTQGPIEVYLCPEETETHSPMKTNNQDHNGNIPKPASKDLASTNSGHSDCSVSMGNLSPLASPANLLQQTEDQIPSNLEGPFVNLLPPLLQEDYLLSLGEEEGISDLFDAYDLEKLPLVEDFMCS
UniProt P20042, whole entry: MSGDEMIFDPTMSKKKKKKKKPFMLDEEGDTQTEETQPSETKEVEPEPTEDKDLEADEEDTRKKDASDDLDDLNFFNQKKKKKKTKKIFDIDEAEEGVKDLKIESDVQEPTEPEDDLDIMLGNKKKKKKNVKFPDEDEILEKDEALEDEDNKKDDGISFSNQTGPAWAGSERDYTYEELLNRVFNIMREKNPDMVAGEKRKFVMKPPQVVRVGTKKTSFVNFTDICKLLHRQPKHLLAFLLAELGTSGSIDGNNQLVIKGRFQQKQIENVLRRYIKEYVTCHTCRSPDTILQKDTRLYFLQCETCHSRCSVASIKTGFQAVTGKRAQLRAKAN
UniProt Q9Y282: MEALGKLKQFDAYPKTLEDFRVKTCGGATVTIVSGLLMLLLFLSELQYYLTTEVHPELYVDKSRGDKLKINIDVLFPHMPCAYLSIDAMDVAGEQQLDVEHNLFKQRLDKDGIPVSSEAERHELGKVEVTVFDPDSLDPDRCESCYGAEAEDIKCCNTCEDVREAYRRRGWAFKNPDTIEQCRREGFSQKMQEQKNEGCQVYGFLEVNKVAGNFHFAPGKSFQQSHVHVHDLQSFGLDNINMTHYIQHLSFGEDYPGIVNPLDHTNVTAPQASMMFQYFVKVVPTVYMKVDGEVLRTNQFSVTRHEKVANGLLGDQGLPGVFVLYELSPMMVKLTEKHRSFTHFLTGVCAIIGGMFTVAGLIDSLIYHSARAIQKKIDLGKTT
UniProt Q9UHY7: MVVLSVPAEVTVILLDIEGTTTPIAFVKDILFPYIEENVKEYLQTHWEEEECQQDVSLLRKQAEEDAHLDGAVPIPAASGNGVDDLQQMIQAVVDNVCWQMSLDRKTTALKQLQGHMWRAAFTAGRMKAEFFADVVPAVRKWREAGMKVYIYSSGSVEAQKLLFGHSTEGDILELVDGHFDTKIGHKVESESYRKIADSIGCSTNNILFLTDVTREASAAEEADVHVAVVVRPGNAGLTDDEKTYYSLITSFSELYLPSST
UniProt O00559: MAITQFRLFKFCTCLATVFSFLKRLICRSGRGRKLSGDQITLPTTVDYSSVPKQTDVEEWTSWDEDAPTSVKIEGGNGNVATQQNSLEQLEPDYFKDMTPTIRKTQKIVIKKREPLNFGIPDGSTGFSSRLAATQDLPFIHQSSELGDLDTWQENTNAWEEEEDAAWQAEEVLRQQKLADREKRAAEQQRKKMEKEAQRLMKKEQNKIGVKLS
UniProt Q9H9B1: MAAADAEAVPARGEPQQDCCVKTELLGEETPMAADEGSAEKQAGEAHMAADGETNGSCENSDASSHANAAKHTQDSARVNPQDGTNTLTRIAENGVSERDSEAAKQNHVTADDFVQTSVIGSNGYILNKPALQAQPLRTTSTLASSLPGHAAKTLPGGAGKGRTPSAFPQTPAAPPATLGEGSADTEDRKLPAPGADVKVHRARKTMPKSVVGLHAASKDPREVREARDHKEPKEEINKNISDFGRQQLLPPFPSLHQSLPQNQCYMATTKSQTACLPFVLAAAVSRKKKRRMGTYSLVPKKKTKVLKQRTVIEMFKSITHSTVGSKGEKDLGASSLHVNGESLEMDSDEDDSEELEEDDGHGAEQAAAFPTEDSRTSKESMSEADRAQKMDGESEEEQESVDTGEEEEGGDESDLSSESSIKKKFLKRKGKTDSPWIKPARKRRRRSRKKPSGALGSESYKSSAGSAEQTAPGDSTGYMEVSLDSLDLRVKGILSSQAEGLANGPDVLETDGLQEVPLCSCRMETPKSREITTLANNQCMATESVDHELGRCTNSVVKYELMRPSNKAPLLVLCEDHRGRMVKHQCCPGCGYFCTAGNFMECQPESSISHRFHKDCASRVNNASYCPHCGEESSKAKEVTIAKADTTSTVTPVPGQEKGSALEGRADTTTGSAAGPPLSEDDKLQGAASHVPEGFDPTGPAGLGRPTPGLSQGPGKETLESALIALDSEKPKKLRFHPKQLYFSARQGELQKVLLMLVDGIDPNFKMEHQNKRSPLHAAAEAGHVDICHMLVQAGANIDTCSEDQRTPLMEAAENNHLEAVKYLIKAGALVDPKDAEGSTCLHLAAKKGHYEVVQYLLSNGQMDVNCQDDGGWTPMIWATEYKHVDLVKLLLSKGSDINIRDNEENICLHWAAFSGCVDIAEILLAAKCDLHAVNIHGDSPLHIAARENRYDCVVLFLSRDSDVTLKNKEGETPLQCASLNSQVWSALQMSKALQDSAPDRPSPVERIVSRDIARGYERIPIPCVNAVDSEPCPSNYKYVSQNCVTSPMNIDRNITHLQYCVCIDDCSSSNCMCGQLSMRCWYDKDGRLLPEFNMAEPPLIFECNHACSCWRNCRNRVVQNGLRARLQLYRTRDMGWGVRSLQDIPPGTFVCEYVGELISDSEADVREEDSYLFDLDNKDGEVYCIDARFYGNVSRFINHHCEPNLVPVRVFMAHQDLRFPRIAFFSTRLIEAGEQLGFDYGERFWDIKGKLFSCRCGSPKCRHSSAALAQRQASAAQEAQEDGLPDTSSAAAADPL
UniProt Q96EK7: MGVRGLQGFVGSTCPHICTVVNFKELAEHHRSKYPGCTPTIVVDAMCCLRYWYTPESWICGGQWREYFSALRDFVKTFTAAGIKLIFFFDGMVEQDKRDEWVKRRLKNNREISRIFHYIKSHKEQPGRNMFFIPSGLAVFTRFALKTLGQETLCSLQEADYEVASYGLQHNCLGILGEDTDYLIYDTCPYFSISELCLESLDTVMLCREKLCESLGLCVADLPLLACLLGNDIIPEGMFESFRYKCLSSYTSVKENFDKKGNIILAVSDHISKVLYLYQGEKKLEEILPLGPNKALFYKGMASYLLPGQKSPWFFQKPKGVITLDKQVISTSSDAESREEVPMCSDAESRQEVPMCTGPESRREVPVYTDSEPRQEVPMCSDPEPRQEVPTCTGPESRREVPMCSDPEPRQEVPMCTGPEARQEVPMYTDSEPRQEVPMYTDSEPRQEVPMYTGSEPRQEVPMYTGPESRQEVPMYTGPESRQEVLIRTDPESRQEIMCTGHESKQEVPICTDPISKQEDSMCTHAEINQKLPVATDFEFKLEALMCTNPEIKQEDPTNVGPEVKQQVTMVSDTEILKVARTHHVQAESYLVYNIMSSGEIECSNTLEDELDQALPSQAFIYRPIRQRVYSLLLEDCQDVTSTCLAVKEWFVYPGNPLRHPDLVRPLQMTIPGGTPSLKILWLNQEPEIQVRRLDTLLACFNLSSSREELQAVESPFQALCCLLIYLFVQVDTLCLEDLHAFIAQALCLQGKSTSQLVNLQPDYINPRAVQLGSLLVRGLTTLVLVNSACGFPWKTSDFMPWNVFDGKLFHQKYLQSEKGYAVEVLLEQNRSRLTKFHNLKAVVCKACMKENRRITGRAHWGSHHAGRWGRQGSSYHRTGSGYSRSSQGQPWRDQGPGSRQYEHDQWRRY

The targets below were run with COc1ccc(Cn2ccc3cc(C)c(C(=O)NO)cc32)cc1 (assay: dose-dependent thermal stabilisation call (2D-TPP, DLPTP, 10% FDR) (binary (1 = stabilised)); higher = stabilised by the compound). Settings: system: HL-60 intact cells; concentration range 0.04-10 µM.
Experimental: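 2D thermal proteome profiling in intact HL-60 cells treated with BRD-3811 (0, 0.04, 0.29, 2, 10 uM) for 90 min at 37 C, then heated 3 min at one of 12 temperatures (42-63.9 C). Soluble protein was quantified by TMT10 MS. The value is the DLPTP call of the paper: dose-dependent thermal stabilisation over all temperatures at 10% FDR (F-test of a dose-response against a flat model); one experiment, one call per tested protein.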

Target | dose-dependent thermal stabilisation call
FAM3C (UniProt Q92520) | inactive: 0
ERBB2IP (UniProt Q96RT1) | inactive: 0
EZH2 (UniProt Q15910) | inactive: 0
EIF3L (UniProt Q9Y262) | inactive: 0
FAM116A (UniProt Q8IWF6) | inactive: 0
FAM29A (UniProt Q7Z4H7) | inactive: 0
ELL (UniProt P55199) | inactive: 0
EIF4E (UniProt P06730) | inactive: 0
EIF2C3 (UniProt Q9H9G7) | inactive: 0
FAM175A (UniProt Q6UWZ7) | inactive: 0
EP300 (UniProt Q09472) | inactive: 0
EIF3A (UniProt Q14152) | inactive: 0
EIF3E (UniProt P60228) | inactive: 0
ESD (UniProt P10768) | inactive: 0
ENY2 (UniProt Q9NPA8) | inactive: 0
ERCC1 (UniProt P07992) | inactive: 0
DYNC2LI1 (UniProt Q8TCX1) | inactive: 0
EVI2B (UniProt P34910) | inactive: 0
EIF6 (UniProt P56537) | inactive: 0
EIF3G (UniProt O75821) | inactive: 0

Target | dose-dependent thermal stabilisation call
FAM158A (UniProt Q9Y3B6) | inactive: 0
EP400 (UniProt Q96L91) | inactive: 0
E2F3 (UniProt O00716) | inactive: 0
EMB (UniProt Q6PCB8) | inactive: 0
EIF2S2 (UniProt P20042) | inactive: 0
FAM128A (UniProt Q6P582) | inactive: 0
EXOSC3 (UniProt Q9NQT5) | inactive: 0
ERLIN2 (UniProt O94905) | inactive: 0
EPDR1 (UniProt Q9UM22) | inactive: 0
EXOG (UniProt Q9Y2C4) | inactive: 0
EGLN1 (UniProt Q9GZT9) | inactive: 0
ERGIC3 (UniProt Q9Y282) | inactive: 0
ENOPH1 (UniProt Q9UHY7) | inactive: 0
EXOC3 (UniProt O60645) | inactive: 0
EBAG9 (UniProt O00559) | inactive: 0
EXDL2 (UniProt Q9NVH0) | inactive: 0
EHMT1 (UniProt Q9H9B1) | inactive: 0
FAM162A (UniProt Q96A26) | inactive: 0
EFNB1 (UniProt P98172) | inactive: 0
FAM120B (UniProt Q96EK7) | inactive: 0

Another view of part of the listing above.
Target,dose-dependent thermal stabilisation call
FAM158A (UniProt Q9Y3B6),inactive: 0
EP400 (UniProt Q96L91),inactive: 0
E2F3 (UniProt O00716),inactive: 0
EMB (UniProt Q6PCB8),inactive: 0
EIF2S2 (UniProt P20042),inactive: 0
FAM128A (UniProt Q6P582),inactive: 0
EXOSC3 (UniProt Q9NQT5),inactive: 0
ERLIN2 (UniProt O94905),inactive: 0
EPDR1 (UniProt Q9UM22),inactive: 0
EXOG (UniProt Q9Y2C4),inactive: 0
EGLN1 (UniProt Q9GZT9),inactive: 0
ERGIC3 (UniProt Q9Y282),inactive: 0
